Consider 39 molecules from PubChem BioAssay AID2685 (National Center for Advancing Translational Sciences (NCATS), 2010).

Some of the results follow. The main result of the screen is listed elsewhere. These columns were measured beside it and carry no call. The list favours compounds with an active or inconclusive main result. The note in brackets gives the kind of curve behind each potency; many fits are weak.

The assay in a line: qHTS Assay for Lipid Storage Modulators in Drosophila S3 Cells.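 As to cell number change: cells counted by Cell Tracker Red CMTPX staining in the red channel.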 The following applies: BODIPY lipid droplet fluorescence, 18-24 h; for cell number change: measured here: cell count max response, cells fed with added oleic acid. In outline:
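Drosophila S3 cells loaded with oleic acid (400 uM, as added) and compounds at several concentrations; lipid droplets imaged by 488-nm laser-scanning cytometry, 500–530 nm intensity and object ratio to cell channel. Percent activity normalized to 20 uM Triacsin C.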

[1] abbreviates: measured here: lipid fluorescence (Fed channel) AC50, cells fed with added oleic acid.
Where [2] appears, read: measured here: cell number channel AC50, cells fed with added oleic acid.

Turning to `CSc1ccccc1Sc1cc(C(=O)O)c2ccccc2n1`, the cell number change turned out to be 19.5%. The AC50 under setting [1] is 13 µM [rising, partial curve].

As for `Cc1cccc(C)c1OC(=O)CN(c1ccc(Cl)cc1)S(C)(=O)=O`, the cell number change came to 107%. Besides, the AC50 under setting [2] is 11.6 µM [rising, partial curve, poor fit]. In addition, the AC50 under setting [1] was 23.1 µM [rising, partial curve].

On to `Cc1ccc(N(C(=O)c2csnn2)C(C(=O)NCc2ccccc2)c2ccccn2)cc1` (stereo not drawn), for which the cell number change was -12.4%. Further, under setting [1], the half-maximal activity concentration (AC50) was 29.1 µM [falling, single point].

Take `CCCNCC1COc2ccccc2O1` (stereo not drawn): the cell number change was -45.2%. Moreover, under setting [2], the concentration at half-maximal activity (AC50) was 18.4 µM [falling, single point]. Besides, the half-maximal activity concentration (AC50) under setting [1] was 16.4 µM [rising, single point].

`Cc1ccc2oc(-c3cccc(NC(=O)c4cc(-n5cnnc5)ccc4Cl)c3)nc2c1`: the cell number change was -76.6%. The AC50 under setting [2] was 11.6 µM [falling, partial curve]. Further, under setting [1], the concentration at half-maximal activity (AC50) is 16.4 µM [falling, partial curve].

As to `O=C(Nc1ccc(Br)c(C(F)(F)F)c1)c1ccccc1`, the cell number change is -9.23%.

Turning to `CCOC(=O)c1c(NC(=O)CSc2nc3ccccc3o2)sc(C)c1C`, the cell number change is -0.445%.

Consider `Clc1ccc(/C=N/Nc2ncnc3ccccc23)cc1Cl`, for which the cell number change was -1.76%. Further, the AC50 under setting [1] is 6.51 µM [rising, partial curve].

On to `N#Cc1ccccc1S(=O)(=O)N1CCN(C(=O)CCC2CCCC2)CC1`, for which the cell number change is 9.46%.

On to `Cc1cn[nH]c1`, for which the cell number change is -7.74%. Moreover, the AC50 under setting [1] is 20.6 µM [falling, single point].

As to `O=C(/C=C/c1ccc(O)c(O)c1)c1ccc(S(=O)(=O)N2CCCCCC2)cc1`, the cell number change is -22.3%. Further, the AC50 under setting [1] was 3.66 µM [falling, full curve, poor fit].

For `COc1ccccc1C1CC(c2cccc(NS(C)(=O)=O)c2)=NN1S(=O)(=O)c1ccccc1` (stereo not drawn), the AC50 by setting is: under setting [2], 1.46 µM [falling, single point]; under setting [1], 2.31 µM [falling, partial curve].

Regarding `COc1ccc(C(NC(=O)C(C)C)c2ccc3cccnc3c2O)cc1` (stereo not drawn), the cell number change came to 2.06%. Further, the AC50 under setting [2] was 6.51 µM [rising, single point].

As to `Cc1ccc(Cl)cc1N1CCN(C(=O)C2(S(=O)(=O)c3ccc(Cl)cc3)CC2)CC1`, the cell number change stood at 68.2%. For the same molecule, under setting [2], the AC50 is 11.6 µM [rising, partial curve, poor fit]. Also, the AC50 under setting [1] was 18.4 µM [rising, partial curve].

Consider `Cc1oc2cc3oc(=O)c(CC(=O)NCC(=O)N[C@@H](C(=O)O)c4ccccc4)c(C)c3cc2c1C`, for which the cell number change was -3.08%. Moreover, under setting [1], the AC50 was 1.64 µM [falling, partial curve, poor fit].

With `CC(OC(=O)Cc1ccsc1)C(=O)Nc1ccc(Cl)cn1` (stereo not drawn), the AC50 under setting [1] was 6.51 µM [falling, single point].

Turning to `CCCc1nc2c(=O)n(C)c(=O)nc-2n(C)n1`, the cell number change was -58.3%. Further, under setting [1], the half-maximal activity concentration (AC50) was 0.058 µM [falling, full curve, poor fit].

Consider `Cc1ccc(C(=O)CCS(=O)(=O)c2ccc(Cl)cc2)cc1`, for which the cell number change is 4.27%. Moreover, under setting [1], the AC50 was 0.282 µM [falling, full curve, poor fit].

For the molecule `CCOc1cc(/C=N/NS(=O)(=O)c2ccc(OC)cc2)ccc1OCCN1CCOCC1`, the cell number change was 12.8%.

As for `COc1cc2ccccc2cc1C(=O)NC1CCCCC1`, the cell number change was -14.4%. The AC50 under setting [1] is 0.231 µM [falling, full curve, poor fit].

Turning to `Clc1cccc(-c2nnc3n2CCCCC3)c1`, the cell number change was -17.9%. Also, under setting [2], the AC50 is 2.06 µM [rising, partial curve, poor fit].

As for `Cc1ccccc1NC(=S)N(CCN1CCOCC1)Cc1ccccc1F`, the cell number change was -11.1%.

On to `Cc1cc(Cl)ccc1OCCCC(=O)OCC(N)=O`, for which the cell number change was -42.5%. Besides, under setting [2], the AC50 was 6.51 µM [falling, single point].

Turning to `Cc1cc(C)c2[nH]c(=O)c(C(c3nnnn3C(C)(C)C)N3CCN(C(=O)c4ccco4)CC3)cc2c1` (stereo not drawn), the cell number change worked out at 32.9%. In addition, the AC50 under setting [2] was 9.2 µM [rising, partial curve]. Besides, under setting [1], the half-maximal activity concentration (AC50) was 3.26 µM [rising, single point].

On to `COc1ccc(NC2=NC(=S)N(c3ccccc3C)C23CCCCC3)cc1`, for which the cell number change was 4.25%. The half-maximal activity concentration (AC50) under setting [1] was 0.13 µM [falling, full curve, poor fit].

As for `Cc1cc(OCC(=O)OCC(=O)NC2CCCC2)ccc1Cl`, the cell number change was 30.6%. The half-maximal activity concentration (AC50) under setting [2] is 29.1 µM [rising, single point]. In addition, the AC50 under setting [1] is 23.1 µM [rising, single point].

As to `Cc1scc(C(=O)N/N=C/c2ccc([N+](=O)[O-])o2)c1C`, the cell number change was -48.8%. The AC50 under setting [2] is 14.6 µM [falling, partial curve]. Also, the concentration at half-maximal activity (AC50) under setting [1] was 20.6 µM [falling, partial curve].

In the case of `CC(C)CNC(=O)C(=O)NCC(c1ccc2c(c1)OCO2)N1CCOCC1` (stereo not drawn), the cell number change was -16.7%. Under setting [1], the half-maximal activity concentration (AC50) was 29.1 µM [rising, single point].

Turning to `COc1ccccc1CN1CCCC(CN(CCN(C)C)C(=O)c2ccc(C)cc2)C1` (stereo not drawn), the cell number change was found to be 13.2%.

In the case of `c1ccc(-c2nc(NCCCN3CCOCC3)c3ccccc3n2)cc1`, the cell number change amounted to 110%. Further, under setting [1], the half-maximal activity concentration (AC50) is 5.17 µM [rising, partial curve].

Consider `Cc1nc(C)c(C(=O)Nc2cccc(C)c2C)o1`, for which the cell number change came to 6.54%. Also, under setting [1], the AC50 is 9.2 µM [rising, partial curve].

Turning to `Cn1c(C(=O)c2ccccc2)nc2ccccc21`, the cell number change was -1.39%. Moreover, the half-maximal activity concentration (AC50) under setting [1] was 29.1 µM [falling, single point].

As for `Cc1ccc(-c2nc3cccnc3s2)cc1NC(=O)C1c2ccccc2Oc2ccccc21`, the cell number change came to 4.34%. Moreover, under setting [1], the AC50 was 29.1 µM [falling, single point].

Consider `CCC1(c2ccccc2)NC(=O)N(CC(=O)Nc2cc(S(=O)(=O)N3CCCCC3)ccc2N(C)C)C1=O` (stereo not drawn), for which the cell number change was -13.7%.

With `O=C(O)c1cc2ncc(CCO)cn2n1`, the cell number change was -11.2%. For the same molecule, under setting [2], the AC50 is 0.146 µM [falling, full curve, poor fit].

Turning to `S=c1nc(-c2ccccc2Cl)[nH][nH]1`, the cell number change stood at 11.1%. The half-maximal activity concentration (AC50) under setting [1] was 0.731 µM [falling, single point].

With `CCOc1ccc(CCNC(=O)CN2C(=O)NC(CCSC)C2=O)cc1OCC` (stereo not drawn), the cell number change was -43.4%. For the same molecule, the half-maximal activity concentration (AC50) under setting [2] was 0.116 µM [falling, full curve, poor fit]. Also, the AC50 under setting [1] is 20.6 µM [falling, partial curve].

Consider `CCOC(=O)c1ccc2nc(NC(NC(C)=O)(C(=O)OC)C(F)(F)F)sc2c1` (stereo not drawn), for which the cell number change was -23.8%. Also, under setting [1], the AC50 was 0.82 µM [falling, full curve].

Consider `CSc1nsc(SCC(=O)Nc2ccc3c(c2)OCCO3)n1`, for which the cell number change amounted to 22.5%. Further, the AC50 under setting [1] was 2.59 µM [rising, partial curve].
